The other results are listed elsewhere or left out. These are further read-outs of the screen, such as a control signal, another cell line or another target. No call is given for them. The list favours compounds with an active or inconclusive main result. The note in brackets gives the kind of curve behind each potency; many fits are weak.
Test: qHTS Assay for Lipid Storage Modulators in Drosophila S3 Cells;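 for cell number change: cells counted by Cell Tracker Red CMTPX staining in the red channel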
Conditions: BODIPY lipid droplet fluorescence, 18-24 h; for cell number change: measured here: cell count max response, cells fed with added oleic acid
Outline: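 Laser-scanning cytometry quantifies lipid droplet accumulation (500–530 nm total intensity; droplet/cell object ratio) in oleic acid-fed (400 uM added) Drosophila S3 cells treated with a concentration series. 20 uM Triacsin C defined 100% inhibition.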

[1] = measured here: lipid fluorescence (Fed channel) AC50, cells fed with added oleic acid
[2] = measured here: cell number channel AC50, cells fed with added oleic acid

| Compound | cell number change [%] | AC50 [1] | AC50 [2] |
| --- | --- | --- | --- |
| CN(C)S(=O)(=O)c1ccc(Oc2ccccc2)cc1 | 22.2 | 6.51 µM [falling, single point] |  |
| CC(=O)Nc1ccc(NC(=O)CCC(=O)NCCO)cc1 | -27 | 29.1 µM [falling, single point] |  |
| CN1CCN(c2ccccc2NC(=O)c2cccc([N+](=O)[O-])c2)CC1 | 122 | 6.51 µM [falling, single point] |  |
| Cc1cccc(C)c1-n1c(C)cc(/C=C2\C(=O)NN(c3ccccc3)C2=O)c1C | -34.9 | 23.1 µM [falling, single point] | 23.1 µM [falling, single point] |
| CS(=O)(=O)N(Cc1ccccc1)c1ccccc1C(=O)N1CCN(c2ccccc2)CC1 | 20.7 | 0.651 µM [falling, full curve, poor fit] |  |
| O=C(NC1CCCC1)c1cc2nc(-c3ccco3)cc(C(F)(F)F)n2n1 | 15.4 |  |  |
| Cc1ccccc1-c1nc(CS(=O)(=O)CC(=O)N2CCCCC2)c(C)o1 | 3.36 |  |  |
| CCOc1ccc(OCCn2c(S(=O)(=O)O)nc3c(N)ncnc32)cc1 | 26.9 | 25.9 µM [falling, single point] |  |
| Cc1nc(C(=O)Nc2ccccc2Cl)cc2c1[nH]c1ccccc12 | 18 | 29.1 µM [falling, single point] |  |
| CC1=C(C(=O)N2CCOCC2)C(c2ccccc2F)C2=C(CCCC2=O)N1 (stereo not given) | -97.6 | 23.1 µM [falling, partial curve] | 18.4 µM [falling, single point] |
| COc1ccc(/C=c2\s/c(=C\C(=O)C(C)(C)C)[nH]c2=O)cc1O | -42.1 | 14.6 µM [falling, partial curve] | 25.9 µM [falling, single point] |
| O=C(/C=C/c1ccc(S(=O)(=O)N2CCOCC2)cc1)NC(=S)Nc1ccc(N2CCOCC2)cc1 | 16.2 |  |  |
| CC(C(=O)N1CCOCC1)n1cc([N+](=O)[O-])cn1 (stereo not given) | 13.7 |  | 0.00461 µM [falling, full curve, poor fit] |
| CC(NS(=O)(=O)c1ccc(F)cc1)C(c1cccs1)N1CCOCC1 (stereo not given) | -35.8 |  | 29.1 µM [falling, single point] |
| COC(=O)c1ccc(Cn2nc(C)c(Br)c2C)cc1 | 9 | 2.31 µM [rising, partial curve] | 0.731 µM [rising, partial curve, poor fit] |
| COc1ccc(CCNC(=O)C(=O)NCc2ccccc2)cc1OC | 9.61 | 16.4 µM [rising, single point] |  |
| COc1ccc(C(=O)NC(=S)N2CCCCC2c2cccnc2)cc1OC (stereo not given) | 6.47 |  |  |
| CCSc1nc(-c2ccccc2)cc(=O)[nH]1 | 14.1 | 1.64 µM [rising, partial curve, poor fit] | 3.26 µM [falling, single point] |
| Cc1cc(C)n2nc(SCC(=O)N3CCc4ccccc43)nc2n1 | -35.2 | 25.9 µM [falling, partial curve, poor fit] | 3.26 µM [rising, single point] |

| Compound | cell number change [%] | AC50 [1] | AC50 [2] |
| --- | --- | --- | --- |
| O=C1c2cccc3c(O)ccc(c23)C(=O)N1Cc1ccco1 | -94.2 | 25.9 µM [falling, partial curve, poor fit] | 25.9 µM [falling, partial curve] |
| CC(NCC(O)COCCC12CC3CC(CC(C3)C1)C2)c1ccccc1 (stereo not given) | -29.9 | 2.31 µM [falling, partial curve] | 3.66 µM [falling, full curve, poor fit] |
| CCCc1oc(C(=O)O)cc1CN1CCOCC1 | -86.5 | 29.1 µM [falling, single point] | 18.4 µM [falling, single point] |
| C=CCN1C(=O)C(CC(=O)Nc2ccccc2)SC1=Nc1ccc(S(N)(=O)=O)cc1 (stereo not given) | 0.942 | 6.51 µM [falling, single point] |  |
| O=C(NNS(=O)(=O)c1ccc(F)cc1F)C1Cc2c(ccc3ccccc23)O1 (stereo not given) | -0.287 |  |  |
| CCCCN(c1ccccc1)S(=O)(=O)c1cccc(C(=O)O)c1 | -108 | 29.1 µM [falling, single point] | 16.4 µM [falling, partial curve] |
| CC1CCN(C(=O)CCN2C(=O)C3C4C=CC(C4)C3C2=O)CC1 (stereo not given) | 32.2 |  |  |
| CN1/C(=C/C(=O)c2ccc(Cl)cc2)Sc2cc3c(cc21)OCO3 | -1.35 | 0.116 µM [rising, full curve, poor fit] |  |
| Cc1sc(NC(=O)CSc2nnc(N)s2)c(C#N)c1C | 5.86 |  |  |
| CC(C)[C@H](NC(=O)C1CC(=O)N(c2ccc3c(c2)OCCO3)C1)C(=O)NC1CCCC1 (stereo not given in full) | 3.44 |  |  |
| COc1ccc(C2C(C(=O)c3cccs3)=C(O)C(=O)N2c2nncs2)cc1 (stereo not given) | -14.3 | 3.26 µM [falling, single point] | 0.13 µM [falling, full curve, poor fit] |
| COc1ccc(OCCN2C(=O)NC(C)(c3ccc(C)cc3)C2=O)cc1 (stereo not given) |  | 1.84 µM [falling, full curve, poor fit] |  |
| CCOC(=O)c1cc(-c2ccc(C)cc2)n(CCC(=O)NCCCOC)c1C | 48.3 |  | 29.1 µM [rising, single point] |
| CCCCN(CC)CCCNC(=O)c1cn(C)c(=O)c2c1c1ccccc1n2C | 25 | 32.6 µM [rising, single point] |  |
| O=C1CC(c2ccc(Cl)c([N+](=O)[O-])c2)c2ccc3ccccc3c2N1 (stereo not given) |  | 2.59 µM [rising, partial curve] | 3.26 µM [rising, single point] |
| CC(C)(C)OC(=O)NC(CCCCNC=O)C(=O)O (stereo not given) | -166 | 29.1 µM [falling, single point] | 29.1 µM [falling, single point] |
| Cc1ccc(C(=O)NCc2ccncc2)cc1S(=O)(=O)N1CCOCC1 | 6.44 | 29.1 µM [rising, single point] |  |
| COC(=O)c1cc(Nc2cc(C)c3c(O)cccc3n2)cc(C(=O)OC)c1 |  | 29.1 µM [rising, single point] |  |
| COc1cccc(C(=O)CSc2nnc(CNc3nc(-c4ccccc4)cs3)n2C)c1 | 56.1 | 13 µM [rising, partial curve] | 8.2 µM [rising, partial curve] |

| Compound | cell number change [%] | AC50 [1] | AC50 [2] |
| --- | --- | --- | --- |
| CC(C)(C)C(=O)Nc1cccc(S(=O)(=O)NC2=NCCC2)c1 | -28.7 | 1.46 µM [falling, partial curve] | 0.231 µM [falling, full curve] |
| Cc1cc(Nc2cccc(Cl)c2)nc(N2CCOCC2)n1 | -5.53 | 2.06 µM [rising, partial curve] |  |
| Cc1noc(C)c1C(=O)Nc1nc(C23CC4CC(CC(C4)C2)C3)cs1 | -5.48 | 29.1 µM [rising, single point] |  |
| Cc1cc(C)n(CCC(=O)N/N=C/c2ccc(Cl)c([N+](=O)[O-])c2)n1 | 20.8 | 2.31 µM [rising, partial curve, poor fit] | 1.84 µM [rising, partial curve, poor fit] |
| Cc1noc(C)c1S(=O)(=O)N1CCCC(C(=O)NCc2ccccc2Cl)C1 (stereo not given) | 5.65 | 0.326 µM [falling, partial curve, poor fit] |  |
| Cc1ccnc(SCC(=O)O)n1 | -2.31 | 1.3 µM [falling, full curve] |  |
| CSc1nc(N(C)C)c2ccccc2n1 | 125 |  |  |
| CC(=O)c1ccc(-c2ccc(C(=O)NCC3CCCO3)o2)cc1 (stereo not given) | 30.6 | 6.51 µM [rising, single point] | 3.26 µM [rising, partial curve] |
| COc1ccc(N2CCN(C(=O)COc3ccc(Cl)cc3Cl)CC2)cc1 | 59.5 | 2.31 µM [rising, full curve] | 2.31 µM [rising, full curve] |
| O=c1c(Cc2ccc(F)cc2)c(O)ccn1CC1CCCO1 (stereo not given) | 35.8 | 3.66 µM [rising, full curve] | 0.103 µM [rising, full curve] |
| CCn1c(=O)c(=O)[nH]c2cc(C(=O)N3CCN(c4ccccc4F)CC3)ccc21 |  | 0.651 µM [falling, single point] |  |
| CC(C)(C)n1nnnc1C(c1cccc(C#N)c1)N1CCCc2ccccc21 (stereo not given) | 5.67 | 4.11 µM [rising, full curve, poor fit] |  |
| CC1(C)CC(=O)c2sc(NC(=O)c3ccco3)nc2C1 | -18.5 | 0.731 µM [falling, single point] |  |
| O=C(O)c1cccc(S(=O)(=O)Nc2cccc(S(=O)(=O)N3CCCCCC3)c2)c1 | 11.4 |  | 0.0058 µM [rising, full curve, poor fit] |
| Cc1onc(-c2ccccc2Cl)c1C(=O)OCc1nnc(-c2ccccc2)o1 | -26 | 0.092 µM [falling, full curve, poor fit] |  |
| CCc1ccc(OCCNC(=O)c2ccccc2SCc2ccccc2)cc1 | -7.52 | 7.31 µM [falling, single point] |  |
| O=C(NCCN1CCOCC1)c1ccc2c(c1)N(Cc1ccccc1)CCS2 | 23.5 |  |  |
| COc1ccc(OC)c(NC(=S)NCc2ccccc2OC)c1 | -8.27 | 6.51 µM [falling, single point] |  |
| COn1c(SCc2cccnc2)nc2ccccc2c1=O | 12.9 | 4.61 µM [rising, partial curve, poor fit] | 1.84 µM [rising, single point] |

Single values from the results shown.
Entry of `Cc1ccnc(SCC(=O)O)n1` under AC50 [1]: 1.3 µM [falling, full curve]
Entry of `COc1ccc(N2CCN(C(=O)COc3ccc(Cl)cc3Cl)CC2)cc1` under AC50 [2]: 2.31 µM [rising, full curve]
Entry of `O=C(NCCN1CCOCC1)c1ccc2c(c1)N(Cc1ccccc1)CCS2` under cell number change [%]: 23.5
Entry of `O=c1c(Cc2ccc(F)cc2)c(O)ccn1CC1CCCO1` (stereo not given) under cell number change [%]: 35.8
Entry of `Cc1onc(-c2ccccc2Cl)c1C(=O)OCc1nnc(-c2ccccc2)o1` under AC50 [1]: 0.092 µM [falling, full curve, poor fit]
